Reference: publication PMC12541374

System: PtoHB1 (Populus tomentosa)
Assay: EMSA
Conditions: 100 ng protein; EMSA with 100 ng protein, biotin-labeled probes (Beyotime kit), 50x and 100x unlabeled competitor; pH and temperature not stated (as in Fang et al. 2023); recombinant protein; protein details: His (pET32a fusion, Ni-NTA purified); label: biotin

“TATTACAATAATTGA (double strand) [12bp-ins-Probe (PtoIRKIhap2 promoter)]”: binds.

The exact form of at least one protein or probe is not confirmed.
